{"source": "paper PMC9485058", "about": "“Glycosylation of a key cubilin Asn residue results in reduced binding to albumin” (The Journal of Biological Chemistry, 2022)", "key": {"[1]": {"biological_target": "albumin FcRn mutant, H464A", "assay": "MST; Monolith NT.115, standard capillaries, 25 °C, 67 mM NaPO4, 150 mM NaCl, 0.05% Tween 20, pH 7.4 + 1 mM CaCl2; albumin labelled with a fluorescent dye (1:1), cubilin domain unlabelled; both purified"}, "[2]": {"biological_target": "albumin domain III (DIII)", "assay": "MST; Monolith NT.115, standard capillaries, 25 °C, 67 mM NaPO4, 150 mM NaCl, 0.05% Tween 20, pH 7.4 + 1 mM CaCl2; albumin labelled with a fluorescent dye (1:1), cubilin domain unlabelled; both purified"}}, "note": "These are yes or no findings as the source states them, for the method shown. Binding calls can cover weak binding; strength is not graded here."}
{"binder": "PNGaseF-deglycosylated CUB7,8 (domain or fragment, rat, UniProt O70244 1165-1389, looked up, N-glycans removed with PNGaseF, cubilin, rat, CUB7 (1165–1277) and CUB8 (1278–1389) of full length cubilin UniProtKB O70244; also called CUB7,8 after PNGaseF treatment (+); His tagged CUB7,8 domain; not shown: His6, C-terminal, kept) CGGNLTTPTGVLTSPNYPMPYYHSSECYWRLEASHGSPFELEFQDFHLEHHPSCSLDYLAVFDGPTTNSRLIDKLCGDTTPAPIRSNKDVVLLKLRTDAGQQGRGFEINFRQRCDNVVIVNKTSGILESINYPNPYDKNQRCNWTIQATTGNTVNYTFLGFDVESYMNCSTDYVELYDGPQWMGRYCGNNMPPPGATTGSQLHVLFHTDGINSGEKGFKMQWFTH", "values": [{"measurement": "binding", "setting": "[1]", "result": "binds"}, {"measurement": "binding", "setting": "[2]", "result": "binds"}]}
